Laboratory results taken from PubChem BioAssay AID2685 (National Center for Advancing Translational Sciences (NCATS), 2010).
This is one part of the list. Shown are side measurements of this screen, not its main read-out; they come without a call. Most of these compounds were active or inconclusive in the main read-out, so they are no random draw. The note in brackets gives the kind of curve behind each potency; many fits are weak.

Assay: qHTS Assay for Lipid Storage Modulators in Drosophila S3 Cells;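 for cell number change: cells counted by Cell Tracker Red CMTPX staining in the red channel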
Settings: BODIPY lipid droplet fluorescence, 18-24 h; for cell number change: measured here: cell count max response, cells fed with added oleic acid
How it was run: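 Drosophila S3 cells loaded with oleic acid (400 uM, as added) and compounds at several concentrations; lipid droplets imaged by 488-nm laser-scanning cytometry, 500–530 nm intensity and object ratio to cell channel. Percent activity normalized to 20 uM Triacsin C.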

[1] = measured here: cell number channel AC50, cells fed with added oleic acid
[2] = measured here: lipid fluorescence (Fed channel) AC50, cells fed with added oleic acid

COc1ccc(S(=O)(=O)N/N=C(/C)c2cccc(NC(=O)c3ccccc3Cl)c2)cc1
cell number change: 0.594%
AC50 [1]: 0.58 µM [rising, single point]
AC50 [2]: 32.6 µM [falling, partial curve, poor fit]

COc1cc2ccccc2cc1C(=O)N(CCN(C)C)c1nc2c(OC)ccc(OC)c2s1
cell number change: 7.03%
AC50 [2]: 20.6 µM [falling, single point]

CCOC(=O)C1=C(C)NC(=O)NC1c1ccc(OCC(=O)OC)c(OC)c1 (stereo unspecified)
cell number change: 13.7%
AC50 [2]: 6.51 µM [falling, single point]

OCCn1c(SCCOc2ccccc2)nc2ccccc21
AC50 [2]: 0.58 µM [falling, single point]

CCCCc1ccc(N2C(=O)[C@@H]3C(CC(N)=O)NC4(C(=O)Nc5ccc(F)cc54)[C@@H]3C2=O)cc1 (stereo partly specified)
cell number change: -22.6%

Cn1c(=NC(=O)c2cnccn2)sc2ccccc21
cell number change: -11.7%
AC50 [2]: 9.2 µM [rising, single point]

Cc1ccc(NC2=NC(c3ccc(C)cc3)n3c(nc(C)cc3=O)N2)cc1 (stereo unspecified)
cell number change: 1.82%
AC50 [2]: 29.1 µM [rising, single point]

CCCCc1nc2ccc(S(=O)(=O)O)cc2[nH]1
cell number change: -22.8%
AC50 [2]: 29.1 µM [falling, single point]

Cn1cc(SCC(=O)NCc2ccc3c(c2)OCO3)c2ccccc21
cell number change: 62.5%
AC50 [1]: 16.4 µM [rising, partial curve, poor fit]
AC50 [2]: 2.06 µM [falling, partial curve]

O=C(O)c1cccc(S(=O)(=O)N2CCC(n3nnc4cc(C(F)(F)F)ccc43)CC2)c1
cell number change: 41%
AC50 [1]: 4.11 µM [rising, partial curve]

CC(=NCC1CCNCC1)C1=C(O)CC(C)(C)CC1=O
cell number change: -206%
AC50 [1]: 29.1 µM [falling, partial curve]
AC50 [2]: 0.00731 µM [falling, full curve, poor fit]

O=C(O)CCc1ccc(-c2ccccc2)n1-c1ccc(C(=O)O)cc1
cell number change: -12.4%

COc1ccc(C2SCC(=O)N2c2nnc(C34CC5CC(CC(C5)C3)C4)s2)cc1 (stereo unspecified)
cell number change: 13.1%
AC50 [2]: 6.51 µM [rising, single point]

CSc1nsc(SC)c1NC(=O)N1CCCCC1
cell number change: -47.7%
AC50 [1]: 2.59 µM [falling, full curve, poor fit]
AC50 [2]: 1.03 µM [falling, full curve]

O=C(CSc1nnc(-c2cccs2)o1)NCC1CN(Cc2ccccc2)CCO1 (stereo unspecified)
cell number change: -3.05%
AC50 [2]: 11.6 µM [rising, partial curve]

Cc1ccc(OCCCC(=O)N(C)CC(=O)Nc2ccccc2Cl)cc1
AC50 [2]: 0.116 µM [falling, full curve, poor fit]

O=C(Cc1ccc(Br)cc1)NC1CCCCC1
AC50 [2]: 25.9 µM [falling, partial curve, poor fit]

COc1cc(OC)cc(C(=O)NNC(=O)CN2C(=O)NC3(CCCC3)C2=O)c1
cell number change: 10.7%
AC50 [2]: 13 µM [rising, partial curve, poor fit]

Cc1cc(N=Nc2ccc3ccccc3c2)ccc1O
cell number change: -24.6%

COc1ccc(N2CCN(CCC(O)c3ccc4ccccc4c3)CC2)cc1 (stereo unspecified)
cell number change: 1.18%
AC50 [2]: 6.51 µM [falling, single point]

CC1CCCc2sc3nc(N4CCN(CCO)CC4)n4ncnc4c3c21 (stereo unspecified)
cell number change: -11.2%
AC50 [2]: 0.0651 µM [falling, full curve, poor fit]

COc1cc2c(cc1OC)C(C)N(S(=O)(=O)c1cn(C)cn1)CC2 (stereo unspecified)
cell number change: 6.48%
AC50 [2]: 0.0517 µM [falling, full curve, poor fit]

O=C1OC(OC(=O)c2ccccc2Br)C(N2CCOCC2)=C1Cl (stereo unspecified)
cell number change: -5.92%
AC50 [2]: 2.59 µM [falling, full curve]

COc1ccccc1-c1nn(Cc2ccccc2)cc1/C=C/C(=O)O
cell number change: -14.2%
AC50 [2]: 0.0058 µM [falling, full curve, poor fit]

Cn1c(N)c(Sc2ccccc2[N+](=O)[O-])c(=O)n(C)c1=O
cell number change: 5.41%
AC50 [2]: 1.84 µM [rising, partial curve]

CS(=O)(=O)N(CC(=O)NCCC1=CCCCC1)C1CCCCC1
cell number change: 2.56%
AC50 [2]: 0.259 µM [falling, partial curve, poor fit]

COc1cc(-c2nc(-c3ccc(NC(=O)c4ccc5c(c4)OCO5)cc3)no2)cc(OC)c1OC
cell number change: -75.1%
AC50 [1]: 11.6 µM [falling, partial curve]
AC50 [2]: 20.6 µM [falling, single point]

FC(F)Oc1ccc(-n2cc(-c3ccccc3)[n+]3c2CCCCC3)cc1
cell number change: 10.6%
AC50 [2]: 0.731 µM [falling, single point]

COc1cccc(CNC(=O)C2CCCN(S(=O)(=O)c3ccc4c(c3)C(C)(C)C(=O)N4C)C2)c1 (stereo unspecified)
cell number change: 23.1%
AC50 [2]: 14.6 µM [rising, partial curve]

COc1cc(CC(NC(C)=O)C(=O)NC2CCN(S(=O)(=O)c3ccc(NC(C)=O)cc3)CC2)cc(OC)c1 (stereo unspecified)
cell number change: 40.3%
AC50 [1]: 6.51 µM [rising, full curve, poor fit]

C=C1c2ccccc2NC(=O)N1c1ccc(C)cc1
AC50 [1]: 0.0517 µM [falling, full curve, poor fit]

Cc1cccc(NC(=O)N2CCCC(CNC(=O)c3ccccc3Cl)C2)c1C (stereo unspecified)
AC50 [2]: 2.31 µM [falling, full curve]

COC(=O)c1ccc(CSc2nc3sc(C(=O)O)c(C)c3c(=O)[nH]2)cc1
cell number change: -0.695%
AC50 [2]: 2.31 µM [falling, partial curve]

CCN(CC)S(=O)(=O)c1ccc(NC2c3ncccc3C(=O)N2Cc2ccccc2)cc1 (stereo unspecified)
cell number change: -17.9%
AC50 [2]: 9.2 µM [falling, partial curve, poor fit]

CCOC(=O)c1c(CN2CCOCC2)n(-c2ccccc2)c2cc(Br)c(OC)cc12
cell number change: 57.2%
AC50 [1]: 1.46 µM [rising, full curve]
AC50 [2]: 2.31 µM [rising, partial curve]

COc1ccc(NS(=O)(=O)c2c(C)cc(C)cc2C)cc1
cell number change: -22.5%
AC50 [2]: 0.58 µM [rising, single point]

CSc1nc(SCCO)c2sc3nc(-c4ccco4)c4c(c3c2n1)CC(C)(C)OC4
cell number change: -16.3%
AC50 [1]: 0.146 µM [rising, full curve, poor fit]

COc1cccc(OC)c1OCCCSc1nc(C)cc(=O)[nH]1
cell number change: 8.77%
AC50 [2]: 14.6 µM [rising, partial curve]

O=C(Cn1ccn(-c2ccc(F)c(Cl)c2)c(=O)c1=O)NCCc1ccccc1
cell number change: 8.08%

Cc1[nH]c2ccccc2c1NC(=O)CN1CCN(c2cccc(C(F)(F)F)c2)CC1
cell number change: -42.6%
AC50 [1]: 29.1 µM [falling, single point]
AC50 [2]: 29.1 µM [falling, single point]

COc1ccc(OC)c(NC(=O)Nc2cnccn2)c1
cell number change: -13.4%
AC50 [2]: 29.1 µM [falling, single point]

CCCn1nc(C(=O)Nc2nc3ccccc3[nH]2)c2ccccc2c1=O
cell number change: 44%
AC50 [1]: 18.4 µM [rising, single point]
AC50 [2]: 4.61 µM [rising, partial curve, poor fit]

CC1CCN(c2ccc(S(=O)(=O)NC3=NCCCCC3)cc2[N+](=O)[O-])CC1
AC50 [1]: 0.0517 µM [rising, partial curve, poor fit]
AC50 [2]: 0.0517 µM [rising, partial curve, poor fit]

Cc1[nH]nc(Nc2ccccc2)c1[N+](=O)[O-]
cell number change: 83.4%

Cc1cc([N+](=O)[O-])cnc1NC(C)c1ccccc1 (stereo unspecified)
cell number change: 11.5%
AC50 [2]: 0.0517 µM [falling, full curve, poor fit]

Cc1ccc2c(c1)CCCN2C(=O)c1cc(C)c(C)s1
cell number change: -49.5%
AC50 [1]: 13 µM [falling, partial curve]

Fc1ccc(C2CC(c3ccccc3)Nc3ncnn32)cc1 (stereo unspecified)
cell number change: -0.552%
AC50 [2]: 0.00461 µM [rising, full curve, poor fit]

Cc1ccc(-c2nnc3c4ccccc4c(C)nn23)cc1S(=O)(=O)N1CCN(CCO)CC1
AC50 [1]: 0.206 µM [rising, full curve, poor fit]
AC50 [2]: 0.206 µM [rising, full curve, poor fit]

COc1cccc(CN(CC(=O)NC2CCCCC2)C(=O)c2csnn2)c1
cell number change: -13.9%
AC50 [2]: 0.116 µM [falling, single point]

CSc1cccc(NS(=O)(=O)c2ccc3c(c2)oc(=O)n3C)c1
cell number change: -1.66%
AC50 [2]: 0.58 µM [rising, single point]

COCCNCC#CCOc1ccc(OC)cc1
cell number change: -3.51%
AC50 [2]: 0.116 µM [falling, full curve, poor fit]

C[C@]12CCC3c4ccc(OCC(=O)O)cc4CCC3C1CCC2=O (stereo partly specified)
cell number change: 7.01%
AC50 [1]: 1.84 µM [falling, partial curve]

CCCCN(C(=O)CN1C(=O)C2CC=CCC2C1=O)c1c(N)n(CCC)c(=O)[nH]c1=O (stereo unspecified)
cell number change: -98.8%
AC50 [2]: 18.4 µM [falling, single point]

CS(=O)(=O)/C(C#N)=C/c1cccn1S(=O)(=O)c1ccccc1
AC50 [2]: 29.1 µM [falling, single point]

CCN1CCN(c2ccc(NC(=O)c3ccc(Cl)c(S(=O)(=O)N4CCCC4)c3)cc2)CC1
cell number change: 7.36%
AC50 [2]: 0.731 µM [falling, single point]

Cc1ccc(C(=O)NC(C)c2ccccc2)cc1S(=O)(=O)N1CCOCC1 (stereo unspecified)
cell number change: 3.23%

CCCCN(C(=O)c1cccc(S(=O)(=O)N2CCN(Cc3ccccc3)CC2)c1)c1ccccc1
cell number change: 10.6%
AC50 [2]: 3.16 µM [rising, single point]

Cc1cccc(NC(=S)N2CCN(S(=O)(=O)c3ccc(F)cc3)CC2)c1
AC50 [2]: 35.5 µM [rising, partial curve, poor fit]
